Reference: paper doi:10.1101/797647
No constants are given. Whether binding was seen depends on the method and setting. For some of these results: In cells and extracts the contact can be indirect. Some binding calls cover weakened binding; strength is not graded here. Where a sequence is shown, tags or fusion partners need not be part of it. One block for each binder: values may come before it.

Sequences of proteins named here, by UniProt entry; tags and fusion partners are left off. A change or cut given only in a name is not applied to a line headed by its entry.
UniProt Q06609, whole entry: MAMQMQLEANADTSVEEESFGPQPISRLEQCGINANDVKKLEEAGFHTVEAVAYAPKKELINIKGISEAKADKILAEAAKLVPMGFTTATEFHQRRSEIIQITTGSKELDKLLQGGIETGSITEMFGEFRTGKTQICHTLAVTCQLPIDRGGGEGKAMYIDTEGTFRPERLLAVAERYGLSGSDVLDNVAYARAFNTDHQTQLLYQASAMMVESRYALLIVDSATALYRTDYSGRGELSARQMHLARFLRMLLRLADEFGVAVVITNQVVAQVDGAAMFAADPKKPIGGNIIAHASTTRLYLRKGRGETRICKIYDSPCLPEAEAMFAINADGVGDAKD

Tests used:
Flag-RAD51 = Flag-RAD51 (UniProt Q06609); assay: co-IP
[1] = molecular target: T1, Myc-Δ700N (CTC1 lacking the N-terminal 700 residues) (human) (UniProt Q2NKJ3); assay: co-IP
T1 sequence: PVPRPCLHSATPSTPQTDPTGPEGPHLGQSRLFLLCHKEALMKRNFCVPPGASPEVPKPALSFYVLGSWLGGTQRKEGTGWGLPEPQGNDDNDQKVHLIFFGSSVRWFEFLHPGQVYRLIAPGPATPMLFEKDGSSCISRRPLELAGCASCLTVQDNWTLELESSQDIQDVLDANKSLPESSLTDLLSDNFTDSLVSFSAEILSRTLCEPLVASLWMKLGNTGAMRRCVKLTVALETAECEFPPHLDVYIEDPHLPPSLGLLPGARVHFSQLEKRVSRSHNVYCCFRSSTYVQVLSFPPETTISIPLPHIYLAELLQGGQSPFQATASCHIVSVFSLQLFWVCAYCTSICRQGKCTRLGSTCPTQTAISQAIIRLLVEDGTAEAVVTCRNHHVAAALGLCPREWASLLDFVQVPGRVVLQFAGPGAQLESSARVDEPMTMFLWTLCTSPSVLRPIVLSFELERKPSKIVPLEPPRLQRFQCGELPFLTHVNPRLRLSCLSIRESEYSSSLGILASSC

[2] = molecular target: T2, Myc-CTC1 (full-length WT-CTC1) (human) (UniProt Q2NKJ3); assay: co-IP
T2 sequence: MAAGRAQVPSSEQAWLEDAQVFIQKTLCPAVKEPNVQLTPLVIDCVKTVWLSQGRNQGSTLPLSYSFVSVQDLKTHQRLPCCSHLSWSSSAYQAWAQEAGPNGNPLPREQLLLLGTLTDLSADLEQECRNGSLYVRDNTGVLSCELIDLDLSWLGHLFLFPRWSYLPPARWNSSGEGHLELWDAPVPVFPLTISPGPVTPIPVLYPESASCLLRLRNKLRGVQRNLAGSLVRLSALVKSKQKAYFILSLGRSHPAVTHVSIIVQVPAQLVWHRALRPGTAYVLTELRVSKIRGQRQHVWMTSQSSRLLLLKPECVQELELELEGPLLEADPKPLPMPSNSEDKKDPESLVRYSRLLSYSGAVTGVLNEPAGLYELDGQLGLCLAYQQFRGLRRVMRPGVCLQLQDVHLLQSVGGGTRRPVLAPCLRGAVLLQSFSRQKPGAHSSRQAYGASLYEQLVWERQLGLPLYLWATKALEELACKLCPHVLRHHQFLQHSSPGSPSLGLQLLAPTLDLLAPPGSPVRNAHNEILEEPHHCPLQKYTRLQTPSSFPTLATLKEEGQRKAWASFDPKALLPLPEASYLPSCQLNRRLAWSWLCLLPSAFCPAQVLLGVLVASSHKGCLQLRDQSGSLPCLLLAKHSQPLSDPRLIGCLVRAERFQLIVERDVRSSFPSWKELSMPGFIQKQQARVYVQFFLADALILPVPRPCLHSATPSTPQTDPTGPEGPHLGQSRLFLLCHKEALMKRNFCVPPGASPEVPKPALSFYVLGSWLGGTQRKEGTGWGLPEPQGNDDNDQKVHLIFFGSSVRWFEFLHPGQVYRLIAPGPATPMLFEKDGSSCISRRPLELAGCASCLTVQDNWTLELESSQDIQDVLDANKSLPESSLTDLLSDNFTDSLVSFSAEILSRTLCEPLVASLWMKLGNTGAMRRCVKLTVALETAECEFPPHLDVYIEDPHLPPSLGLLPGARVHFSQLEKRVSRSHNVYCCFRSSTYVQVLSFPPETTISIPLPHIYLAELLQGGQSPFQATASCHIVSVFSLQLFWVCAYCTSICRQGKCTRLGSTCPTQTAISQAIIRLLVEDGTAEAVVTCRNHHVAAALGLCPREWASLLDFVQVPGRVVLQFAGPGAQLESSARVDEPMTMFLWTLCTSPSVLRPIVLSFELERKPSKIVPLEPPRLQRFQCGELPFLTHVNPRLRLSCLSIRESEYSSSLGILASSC

[3] = molecular target: T3, Flag-CTC1 (wild type, of the purified human CST complex) (human) (UniProt Q2NKJ3); assay: co-purification
T3 sequence: T2 sequence

[4] = molecular target: T4, Flag-CTC1Δ700N (of the purified Δ700N-ST complex) (human) (UniProt Q2NKJ3); assay: co-purification
T4 sequence: T1 sequence

binding (Flag-RAD51): binds
B1: Myc-Δ700N (CTC1 lacking the N-terminal 700 residues) (domain or fragment, UniProt Q2NKJ3 701-1217)
chain: T1 sequence

binding [3]: binds
binding [4]: binds
B3: STN1 (of the purified human CST complex) (protein, UniProt Q9H668 1-368)
chain: MQPGSSRCEEETPSLLWGLDPVFLAFAKLYIRDILDMKESRQVPGVFLYNGHPIKQVDVLGTVIGVRERDAFYSYGVDDSTGVINCICWKKLNTESVSAAPSAARELSLTSQLKKLQETIEQKTKIEIGDTIRVRGSIRTYREEREIHATTYYKVDDPVWNIQIARMLELPTIYRKVYDQPFHSSALEKEEALSNPGALDLPSLTSLLSEKAKEFLMENRVQSFYQQELEMVESLLSLANQPVIHSASSDQVNFKKDTTSKAIHSIFKNAIQLLQEKGLVFQKDDGFDNLYYVTREDKDLHRKIHRIIQQDCQKPNHMEKGCHFLHILACARLSIRPGLSEAVLQQVLELLEDQSDIVSTMEHYYTAF

binding [3]: binds
binding [4]: binds
B4: TEN1-(His)6 (of the purified human CST complex) (protein, UniProt Q86WV5 1-123)
chain: MMLPKPGTYYLPWEVSAGQVPDGSTLRTFGRLCLYDMIQSRVTLMAQHGSDQHQVLVCTKLVEPFHAQVGSLYIVLGELQHQQDRGSVVKARVLTCVEGMNLPLLEQAIREQRLYKQERGGSQ

Second part, the binder before the results:

B2: His6-STN1 (protein, UniProt Q9H668 1-368)
chain: B3 chain
binding [1]: binds
binding [2]: binds

B5: HA-TEN1 (protein, UniProt Q86WV5 1-123)
chain: B4 chain
binding [1]: binds
binding [2]: binds

B6: Myc-CTC1 (full-length WT-CTC1) (protein, UniProt Q2NKJ3 1-1217)
chain: T2 sequence
binding (Flag-RAD51): binds
